In article PMC6327430 one finds binding data, which are given here for 1 substance.

Protein sequences, listed by entry. Tags and fused reporters are not part of them. Residues count along the entry.
UniProt P78527: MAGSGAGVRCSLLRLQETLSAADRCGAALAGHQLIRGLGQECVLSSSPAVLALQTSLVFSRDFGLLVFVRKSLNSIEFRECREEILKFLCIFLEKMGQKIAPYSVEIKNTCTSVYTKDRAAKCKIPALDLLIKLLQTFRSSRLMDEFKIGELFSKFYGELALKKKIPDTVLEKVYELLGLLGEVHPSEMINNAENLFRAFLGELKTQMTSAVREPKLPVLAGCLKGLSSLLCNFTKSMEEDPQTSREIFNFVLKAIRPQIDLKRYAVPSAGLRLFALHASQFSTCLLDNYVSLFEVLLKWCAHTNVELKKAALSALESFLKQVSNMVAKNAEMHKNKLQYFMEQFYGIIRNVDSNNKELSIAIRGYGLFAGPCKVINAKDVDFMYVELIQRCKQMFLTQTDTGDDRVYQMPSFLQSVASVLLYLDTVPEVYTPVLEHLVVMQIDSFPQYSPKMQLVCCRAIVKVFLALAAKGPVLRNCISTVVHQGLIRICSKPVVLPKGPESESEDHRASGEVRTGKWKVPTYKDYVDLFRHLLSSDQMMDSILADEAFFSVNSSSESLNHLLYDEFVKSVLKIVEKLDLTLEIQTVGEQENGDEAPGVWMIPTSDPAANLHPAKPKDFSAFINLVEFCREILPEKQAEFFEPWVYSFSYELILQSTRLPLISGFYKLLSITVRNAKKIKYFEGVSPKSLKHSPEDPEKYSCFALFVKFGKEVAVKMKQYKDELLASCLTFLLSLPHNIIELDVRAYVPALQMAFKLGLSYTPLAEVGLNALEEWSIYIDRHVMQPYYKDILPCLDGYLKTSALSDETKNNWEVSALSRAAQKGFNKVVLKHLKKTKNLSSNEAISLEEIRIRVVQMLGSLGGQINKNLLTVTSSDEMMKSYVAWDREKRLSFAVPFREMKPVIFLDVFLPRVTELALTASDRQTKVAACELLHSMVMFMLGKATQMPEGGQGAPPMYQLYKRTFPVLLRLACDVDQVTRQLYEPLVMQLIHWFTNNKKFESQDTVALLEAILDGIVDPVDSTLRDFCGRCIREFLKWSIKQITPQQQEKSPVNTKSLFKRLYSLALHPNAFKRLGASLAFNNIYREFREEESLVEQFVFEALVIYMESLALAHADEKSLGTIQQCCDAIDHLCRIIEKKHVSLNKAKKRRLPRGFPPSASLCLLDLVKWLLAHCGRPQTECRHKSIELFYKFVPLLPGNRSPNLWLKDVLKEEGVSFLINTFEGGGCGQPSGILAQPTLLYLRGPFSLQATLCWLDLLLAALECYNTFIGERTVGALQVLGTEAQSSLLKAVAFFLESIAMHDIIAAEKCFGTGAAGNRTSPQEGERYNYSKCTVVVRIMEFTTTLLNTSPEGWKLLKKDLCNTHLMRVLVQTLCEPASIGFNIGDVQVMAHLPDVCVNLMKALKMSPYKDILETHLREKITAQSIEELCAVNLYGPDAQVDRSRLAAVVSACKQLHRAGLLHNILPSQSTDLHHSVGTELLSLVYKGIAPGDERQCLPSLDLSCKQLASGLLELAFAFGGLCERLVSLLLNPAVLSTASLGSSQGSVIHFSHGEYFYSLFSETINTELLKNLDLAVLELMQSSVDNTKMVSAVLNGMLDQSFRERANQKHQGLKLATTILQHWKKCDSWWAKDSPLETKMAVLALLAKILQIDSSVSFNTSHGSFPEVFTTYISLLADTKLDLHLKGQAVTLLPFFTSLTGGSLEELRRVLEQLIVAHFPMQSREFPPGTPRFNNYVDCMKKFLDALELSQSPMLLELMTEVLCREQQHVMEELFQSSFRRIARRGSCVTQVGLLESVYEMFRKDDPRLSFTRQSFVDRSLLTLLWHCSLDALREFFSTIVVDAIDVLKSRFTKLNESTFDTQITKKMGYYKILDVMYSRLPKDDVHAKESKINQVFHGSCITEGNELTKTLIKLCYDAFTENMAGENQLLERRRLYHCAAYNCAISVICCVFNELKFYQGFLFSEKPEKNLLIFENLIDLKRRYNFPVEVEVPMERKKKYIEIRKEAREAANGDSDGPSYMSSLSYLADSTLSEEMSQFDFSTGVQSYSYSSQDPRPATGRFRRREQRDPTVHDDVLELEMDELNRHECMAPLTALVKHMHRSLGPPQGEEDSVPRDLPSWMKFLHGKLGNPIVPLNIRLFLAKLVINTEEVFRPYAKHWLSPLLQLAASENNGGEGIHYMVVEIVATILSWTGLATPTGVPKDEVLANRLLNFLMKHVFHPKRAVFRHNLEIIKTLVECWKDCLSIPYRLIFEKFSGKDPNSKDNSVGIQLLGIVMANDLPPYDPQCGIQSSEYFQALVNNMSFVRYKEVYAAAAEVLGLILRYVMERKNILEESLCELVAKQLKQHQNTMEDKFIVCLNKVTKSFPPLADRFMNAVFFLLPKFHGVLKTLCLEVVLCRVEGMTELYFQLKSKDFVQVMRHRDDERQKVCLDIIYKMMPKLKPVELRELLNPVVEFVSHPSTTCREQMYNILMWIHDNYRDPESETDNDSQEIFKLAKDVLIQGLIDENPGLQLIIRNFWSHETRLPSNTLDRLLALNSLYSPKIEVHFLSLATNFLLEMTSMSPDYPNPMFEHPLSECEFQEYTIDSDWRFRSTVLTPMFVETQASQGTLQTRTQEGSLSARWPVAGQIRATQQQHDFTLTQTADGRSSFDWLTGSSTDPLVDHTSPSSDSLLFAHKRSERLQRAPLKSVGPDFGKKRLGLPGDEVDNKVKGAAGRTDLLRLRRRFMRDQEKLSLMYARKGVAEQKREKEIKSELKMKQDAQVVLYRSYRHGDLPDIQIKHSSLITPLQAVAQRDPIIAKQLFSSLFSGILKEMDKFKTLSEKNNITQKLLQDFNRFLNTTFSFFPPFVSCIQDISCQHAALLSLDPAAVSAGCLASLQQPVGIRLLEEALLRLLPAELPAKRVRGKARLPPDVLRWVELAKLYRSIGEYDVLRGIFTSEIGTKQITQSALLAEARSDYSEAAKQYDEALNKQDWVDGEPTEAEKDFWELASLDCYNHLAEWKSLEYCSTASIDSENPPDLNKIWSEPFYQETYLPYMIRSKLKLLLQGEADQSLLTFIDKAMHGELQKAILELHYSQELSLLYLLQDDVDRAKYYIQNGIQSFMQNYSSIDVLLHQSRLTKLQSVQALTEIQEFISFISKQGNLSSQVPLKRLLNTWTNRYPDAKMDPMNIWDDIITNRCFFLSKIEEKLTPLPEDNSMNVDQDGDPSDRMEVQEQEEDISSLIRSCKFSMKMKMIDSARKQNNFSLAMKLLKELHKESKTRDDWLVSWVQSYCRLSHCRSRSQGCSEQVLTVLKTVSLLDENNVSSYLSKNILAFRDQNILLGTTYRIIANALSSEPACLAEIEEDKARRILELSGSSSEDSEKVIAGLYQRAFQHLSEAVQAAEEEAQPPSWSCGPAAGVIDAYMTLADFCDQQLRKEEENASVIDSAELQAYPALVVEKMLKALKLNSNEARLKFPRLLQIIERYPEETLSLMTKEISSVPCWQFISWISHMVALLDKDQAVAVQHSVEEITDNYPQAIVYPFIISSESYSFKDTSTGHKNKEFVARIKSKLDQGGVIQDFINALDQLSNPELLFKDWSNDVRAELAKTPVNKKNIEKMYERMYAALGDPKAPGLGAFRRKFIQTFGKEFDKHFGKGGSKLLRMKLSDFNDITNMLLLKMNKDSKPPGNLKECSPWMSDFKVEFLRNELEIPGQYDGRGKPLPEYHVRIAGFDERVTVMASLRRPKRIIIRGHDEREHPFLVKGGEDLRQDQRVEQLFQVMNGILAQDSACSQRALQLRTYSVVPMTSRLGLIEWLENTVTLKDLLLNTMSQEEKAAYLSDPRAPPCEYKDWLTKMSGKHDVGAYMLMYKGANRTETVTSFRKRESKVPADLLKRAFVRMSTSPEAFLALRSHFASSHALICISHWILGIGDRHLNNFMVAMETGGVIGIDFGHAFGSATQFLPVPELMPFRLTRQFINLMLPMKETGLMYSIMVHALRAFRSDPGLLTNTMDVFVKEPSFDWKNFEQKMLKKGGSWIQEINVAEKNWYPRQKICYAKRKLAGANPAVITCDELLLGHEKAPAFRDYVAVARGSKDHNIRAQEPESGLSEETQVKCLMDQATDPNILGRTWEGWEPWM
UniProt P18065, residues 36-325: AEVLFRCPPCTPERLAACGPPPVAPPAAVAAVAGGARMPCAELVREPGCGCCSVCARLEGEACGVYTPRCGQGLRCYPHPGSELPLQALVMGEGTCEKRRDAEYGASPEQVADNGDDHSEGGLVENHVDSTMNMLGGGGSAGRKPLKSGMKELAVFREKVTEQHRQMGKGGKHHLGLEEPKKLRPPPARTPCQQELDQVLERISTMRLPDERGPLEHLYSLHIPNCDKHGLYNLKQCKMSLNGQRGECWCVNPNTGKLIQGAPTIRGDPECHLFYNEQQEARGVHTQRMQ

Results are given in words; binding and its absence hold for the method and conditions named. In cells and extracts the contact can be indirect. Some entries that bind do so weakly or less than the wild type.

The target in test [1] is DNA-dependent protein kinase, catalytic subunit (human (endogenous in FLO1 and OE33)) (UniProt P78527). The test can be described thus: co-IP; endogenous proteins; antibodies against IGFBP2, EGFR or DNA-PKcs captured on protein G magnetic beads, incubated with lysate at 4 °C overnight, western blot; FLO1 and OE33 cells untreated or treated with acidic bile salts (ABS, pH 4, 200 μM) for 20 min and recovered 0.5 h; also FLO1 cells with IGFBP2 siRNA knockdown (EGFR IP); IgG as negative control.

For test [2], the target named is epidermal growth factor receptor (human (endogenous in FLO1 and OE33)) (UniProt P00533). Described as above.

With “insulin-like growth factor binding protein 2 (from UniProt P18065 36-325)”, the binding result in test [1] and in test [2] was “binds” throughout.
